These results are taken from paper PMC3009601, “Structural Basis for Apoptosis Inhibition by Epstein-Barr Virus BHRF1” (PLoS Pathogens, 2010).

These are yes or no findings as the source states them, for the method shown. Binding seen in cells or lysates may run through a third protein. Binding can be weak; no strength is given. Where a sequence is shown, tags or fusion partners need not be part of it.

The target in the experiment is T1, EE-tagged Bad (human) (UniProt Q92934).
T1 sequence: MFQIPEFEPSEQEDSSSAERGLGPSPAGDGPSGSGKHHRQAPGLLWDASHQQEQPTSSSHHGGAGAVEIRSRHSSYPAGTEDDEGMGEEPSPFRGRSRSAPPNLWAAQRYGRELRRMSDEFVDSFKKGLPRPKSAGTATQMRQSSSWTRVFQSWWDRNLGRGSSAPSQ
The experiment can be described thus: co-IP; lysates of 35S-labeled HEK-293T cells co-expressing FLAG-tagged BHRF1 and EE-tagged BH3-only proteins, immunoprecipitated with antibodies to FLAG, EE or a control (HA) tag; SDS-PAGE and autoradiography.

On to “Endogenous 14-3-3 (human (endogenous in HEK-293T))”, for which the binding result is listed as “binds”.
